Measurements from patent US20130303518A1, “Methods of Inhibiting the Catalytic Activity of a Protein Kinase and of Treating a Protein Kinase Related Disorder” (JIANGSU HANSOH PHARMACEUTICAL CO., LTD., priority 2007, published 2013).
Entries after “also recorded” stand apart in the source; their conditions may differ. At least one structure is not confirmed: it was looked up by name or label, or the drawing left a doubt.

System: HT-29 human colon cancer
Test: Therapeutic effects against xenografts of HT-29 human colon cancer in nude mice
Format: in vivo
Conditions: continuous oral dosing, malate
Protocol: The therapeutic effects of Example 63 against xenografts of HT-29 human colon cancer in nude mice were estimated.
The therapeutic effects of the compound of Example 63 against xenografts of HT-29 human colon cancer in nude mice were estimated.
Preparation method: the compound of Example 63 was prepared to corresponding concentration with distilled water.
Six to seven-week-old BALB/cA-nude female mice was purchased from Slaccas Experimental Animal. Certificate No.: SCXK(Shanghai) 2003˜0003. Raising Conditions: SPF level.
Nude mice were hypodermic inoculated HT-29 human colon cancer cell. After tumors grew to 100-300 mm^3, mice were randomly divided into teams (d0). The volume of tumors and weigh of the mice were measured for 2-3 times per week. The calculation formula of the volume of tumor (V) is: V=½×a×b^2, a: length of tumor, b: width of tumor.

CCN(CC)CCN1CCCc2[nH]c(/C=C3\C(=O)Nc4ccc(F)cc43)c(C)c2C1=O [Example 63, malate]
growth of HT-29 human colon cancer (in words): markedly inhibited the growth; also recorded: obviously inhibited the growth
